In PubChem BioAssay AID248 (DTP/NCI, 2004) one finds survivor count and T/C data, which are given here for six molecules.

Molecules are shown by their SMILES. The list is a part of this screen's results and no random one: it gathers tests that were run many times, whatever their T/C, doses with no T/C, and many T/C values between a quarter and a half above the control. Other doses and runs of a compound stand elsewhere. T/C: endpoint of the treated group in % of that of the vehicle group. Some entries give survivors of the animals treated and no T/C: the source holds a T/C of zero for them, seemingly a mark for toxic or unscored doses. Some doses without a T/C left all or most animals alive at the check, yet need not have been tolerated: the source hardly ever lists a survival T/C far under the control, and the zero likely stands for such cases as well. Survivors were counted at the toxicity check, usually on the fifth day, unless a day is given; later deaths do not show. Schedule codes are those of the source, taken here to give the interval after Q, in days (D) or hours (H), and the number of doses after X. For survival time, the PubChem record calls one and a half times the control and up active, and a quarter to a half above the control has no call in these data; cut-offs in other NCI protocols can differ. Some T/C values are followed by the survivors on the day toxicity was checked, most often the fifth; where none is given, no animal had died by that day. Some entries were tested several times; their values stand side by side, smallest first.

The experiment concerns L1210 leukemia ip in BDF1 mice, survival T/C. In words: NCI In Vivo Anticancer Drug Screen. Data for tumor model L1210 Leukemia (intraperitoneal) in B6D2F1 (BDF1) mice. The conditions noted are these: T/C endpoint: mean survival time, higher T/C = longer survival.
Where [1] appears, read: dose: 25.0 mg/kg/injection, schedule: Q01DX009 (ip), vehicle: saline.

Turning to `CC(C)(C)C1CCC(NN)CC1` (stereo not drawn), the survivor count reads like this: (dose: 12.5 mg/kg/injection, schedule: Q01DX009 (ip), vehicle: saline) 4 of 6; under setting [1], 0 of 6; (dose: 50.0 mg/kg/injection, schedule: Q04DX003 (ip), vehicle: saline) 6 of 6; (dose: 100.0 mg/kg/injection, schedule: Q01DX001 (ip), vehicle: saline) 0 of 6; (dose: 200.0 mg/kg/injection, schedule: Q01DX001 (ip), vehicle: saline) 1 of 6.
For the molecule `Cc1ccc(NC(=O)N(CCCl)N=O)cc1Cl`, the T/C (dose: 2.0 mg/kg/injection, schedule: Q01DX009 (ip), vehicle: carboxymethylcellulose (CMC)) is 138 % of control; the T/C (dose: 4.0 mg/kg/injection, schedule: Q01DX009 (ip), vehicle: carboxymethylcellulose (CMC)) was 141 and 141 % of control [5 of 6 alive]; the T/C (dose: 6.0 mg/kg/injection, schedule: Q01DX009 (ip), vehicle: carboxymethylcellulose (CMC)) is 132 % of control; the T/C (dose: 8.0 mg/kg/injection, schedule: Q01DX001 (ip), vehicle: carboxymethylcellulose (CMC)) is 125 % of control; the T/C (dose: 9.0 mg/kg/injection, schedule: Q01DX009 (ip), vehicle: carboxymethylcellulose (CMC)) was 143 % of control; the T/C (dose: 14.0 mg/kg/injection, schedule: Q01DX009 (ip), vehicle: carboxymethylcellulose (CMC)) is 137 % of control [4 of 6 alive]. Further, the T/C is, setting by setting: (dose: 20.0 mg/kg/injection, schedule: Q01DX001 (ip), vehicle: carboxymethylcellulose (CMC)) 132 % of control; (dose: 20.0 mg/kg/injection, schedule: Q01DX007 (ip), vehicle: carboxymethylcellulose (CMC)) 141 % of control; (dose: 22.0 mg/kg/injection, schedule: Q01DX009 (ip), vehicle: carboxymethylcellulose (CMC)) 140 % of control [5 of 6 alive]; (dose: 30.0 mg/kg/injection, schedule: Q01DX001 (ip), vehicle: carboxymethylcellulose (CMC)) 127 % of control; (dose: 100.0 mg/kg/injection, schedule: Q01DX001 (ip), vehicle: carboxymethylcellulose (CMC)) 128 % of control. Moreover, the survivor count by setting is: (dose: 50.0 mg/kg/injection, schedule: Q01DX009 (ip), vehicle: carboxymethylcellulose (CMC)) 2 of 6; (dose: 66.0 mg/kg/injection, schedule: Q01DX001 (ip), vehicle: other) 4 of 6; (dose: 100.0 mg/kg/injection, schedule: Q01DX001 (ip), vehicle: other) 0 of 6; (dose: 200.0 mg/kg/injection, schedule: Q01DX001 (ip), vehicle: carboxymethylcellulose (CMC)) 2 of 4; (dose: 400.0 mg/kg/injection, schedule: Q01DX001 (ip), vehicle: carboxymethylcellulose (CMC)) 0 of 4.
For the molecule `CCCCCCCC/C=C\CCCCCCCCOC(=O)Cc1ccc(N(CCCl)CCCl)cc1`, the T/C (dose: 400.0 mg/kg/injection, schedule: Q01DX005 (ip), vehicle: Klucel (hydroxypropylcellulose) (HPC)) was 129 % of control.
With `CN1CCCCC(c2ccccc2)(c2ccccc2)C1=N`, the survivor count is, setting by setting: (dose: 75.0 mg/kg/injection, schedule: Q01DX001 (ip), vehicle: saline) 0 of 6; (dose: 150.0 mg/kg/injection, schedule: Q01DX001 (ip), vehicle: saline) 0 of 6.
On to `CC([CH2][Hg][Cl])c1ccccc1` (stereo not drawn), for which the survivor count by setting is: (dose: 25.0 mg/kg/injection, schedule: Q04DX003 (ip), vehicle: Klucel (hydroxypropylcellulose) (HPC)) 0 of 6; (dose: 100.0 mg/kg/injection, schedule: Q04DX003 (ip), vehicle: Klucel (hydroxypropylcellulose) (HPC)) 0 of 6; (dose: 200.0 mg/kg/injection, schedule: Q04DX003 (ip), vehicle: Klucel (hydroxypropylcellulose) (HPC)) 0 of 6; (dose: 400.0 mg/kg/injection, schedule: Q04DX003 (ip), vehicle: Klucel (hydroxypropylcellulose) (HPC)) 0 of 6.
In the case of `COc1cccc2c1C(=O)c1c(O)c3c(c(O)c1C2=O)C[C@@](O)(/C(C)=N\NC(=O)CO)C[C@@H]3OC1CC(N)C(O)C(C)O1` (stereo partly drawn), the T/C is, setting by setting: (dose: 2.0 mg/kg/injection, schedule: Q04DX003 (ip), vehicle: saline) 127 % of control; (dose: 2.66 mg/kg/injection, schedule: Q04DX003 (ip), vehicle: saline) 135 % of control; (dose: 4.0 mg/kg/injection, schedule: Q04DX003 (ip), vehicle: saline) 140 % of control; (dose: 6.0 mg/kg/injection, schedule: Q04DX003 (ip), vehicle: saline) 148 % of control; (dose: 7.0 mg/kg/injection, schedule: Q01DX009 (ip), vehicle: saline) 142 % of control; (dose: 8.0 mg/kg/injection, schedule: Q04DX003 (ip), vehicle: saline) 128 % of control [5 of 6 alive]. In addition, the T/C is 147 % of control (dose: 9.0 mg/kg/injection, schedule: Q04DX003 (ip), vehicle: saline); 131 % of control (dose: 12.5 mg/kg/injection, schedule: Q04DX003 (ip), vehicle: saline); 139 % of control (dose: 21.0 mg/kg/injection, schedule: Q04DX003 (ip), vehicle: saline); 127 % of control under setting [1]; 147 % of control (dose: 32.0 mg/kg/injection, schedule: Q04DX003 (ip), vehicle: saline); 145 % of control (dose: 50.0 mg/kg/injection, schedule: Q01DX009 (ip), vehicle: saline). Besides, the survivor count by setting is: (dose: 21.0 mg/kg/injection, schedule: Q01DX009 (ip), vehicle: saline) 5 of 6; (dose: 32.0 mg/kg/injection, schedule: Q01DX009 (ip), vehicle: saline) 1 of 6; (dose: 48.0 mg/kg/injection, schedule: Q04DX003 (ip), vehicle: saline) 6 of 6.
